Reference: the supplement of paper PMC10849652
The other results are listed elsewhere or left out. Residues, ends and D or L forms follow the SMILES beside them. *: point of attachment. Cbz = O=C(OCc1ccccc1)*

Amino acid sequences for entries named in this document (tags omitted). A change or cut given only in a name is not applied to a line headed by its entry.
UniProt O95620: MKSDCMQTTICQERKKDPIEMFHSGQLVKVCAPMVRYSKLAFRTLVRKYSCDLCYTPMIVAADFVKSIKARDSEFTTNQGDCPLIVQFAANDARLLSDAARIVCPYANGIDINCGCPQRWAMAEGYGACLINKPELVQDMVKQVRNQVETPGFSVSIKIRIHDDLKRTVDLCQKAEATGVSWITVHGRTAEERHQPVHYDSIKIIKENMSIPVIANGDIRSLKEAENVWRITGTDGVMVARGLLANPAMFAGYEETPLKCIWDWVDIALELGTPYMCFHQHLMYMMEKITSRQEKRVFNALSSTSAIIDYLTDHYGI
UniProt Q9UDY4: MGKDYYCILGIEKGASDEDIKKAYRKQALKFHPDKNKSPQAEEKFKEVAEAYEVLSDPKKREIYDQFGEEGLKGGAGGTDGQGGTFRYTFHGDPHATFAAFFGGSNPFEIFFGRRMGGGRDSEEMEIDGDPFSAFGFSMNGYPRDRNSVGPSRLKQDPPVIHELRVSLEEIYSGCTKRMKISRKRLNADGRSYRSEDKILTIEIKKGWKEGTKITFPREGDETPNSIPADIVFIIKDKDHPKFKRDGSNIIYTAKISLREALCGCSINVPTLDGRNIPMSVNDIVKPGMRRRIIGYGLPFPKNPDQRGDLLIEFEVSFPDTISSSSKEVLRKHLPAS
UniProt Q96EY1: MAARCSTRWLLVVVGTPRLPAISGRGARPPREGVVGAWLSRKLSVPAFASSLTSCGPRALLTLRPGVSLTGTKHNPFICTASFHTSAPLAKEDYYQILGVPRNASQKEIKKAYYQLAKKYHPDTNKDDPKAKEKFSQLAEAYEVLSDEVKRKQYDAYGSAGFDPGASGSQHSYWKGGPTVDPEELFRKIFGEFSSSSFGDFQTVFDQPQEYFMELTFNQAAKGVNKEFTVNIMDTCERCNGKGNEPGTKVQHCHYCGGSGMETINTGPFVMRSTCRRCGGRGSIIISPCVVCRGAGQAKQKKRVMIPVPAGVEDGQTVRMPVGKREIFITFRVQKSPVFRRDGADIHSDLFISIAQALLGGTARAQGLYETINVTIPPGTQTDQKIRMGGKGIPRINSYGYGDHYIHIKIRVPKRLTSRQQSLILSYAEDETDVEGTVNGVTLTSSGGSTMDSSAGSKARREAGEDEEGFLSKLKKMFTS
UniProt Q9NP97, whole entry, looked up: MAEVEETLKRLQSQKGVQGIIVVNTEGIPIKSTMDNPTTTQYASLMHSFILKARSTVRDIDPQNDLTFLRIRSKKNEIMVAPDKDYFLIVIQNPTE
UniProt Q14919: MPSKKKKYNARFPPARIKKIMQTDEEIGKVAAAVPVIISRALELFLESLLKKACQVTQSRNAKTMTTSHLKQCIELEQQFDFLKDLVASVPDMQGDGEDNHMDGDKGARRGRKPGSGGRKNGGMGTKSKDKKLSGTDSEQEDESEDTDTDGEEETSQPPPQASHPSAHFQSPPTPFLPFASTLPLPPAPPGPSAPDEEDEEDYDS
UniProt Q9BZ29: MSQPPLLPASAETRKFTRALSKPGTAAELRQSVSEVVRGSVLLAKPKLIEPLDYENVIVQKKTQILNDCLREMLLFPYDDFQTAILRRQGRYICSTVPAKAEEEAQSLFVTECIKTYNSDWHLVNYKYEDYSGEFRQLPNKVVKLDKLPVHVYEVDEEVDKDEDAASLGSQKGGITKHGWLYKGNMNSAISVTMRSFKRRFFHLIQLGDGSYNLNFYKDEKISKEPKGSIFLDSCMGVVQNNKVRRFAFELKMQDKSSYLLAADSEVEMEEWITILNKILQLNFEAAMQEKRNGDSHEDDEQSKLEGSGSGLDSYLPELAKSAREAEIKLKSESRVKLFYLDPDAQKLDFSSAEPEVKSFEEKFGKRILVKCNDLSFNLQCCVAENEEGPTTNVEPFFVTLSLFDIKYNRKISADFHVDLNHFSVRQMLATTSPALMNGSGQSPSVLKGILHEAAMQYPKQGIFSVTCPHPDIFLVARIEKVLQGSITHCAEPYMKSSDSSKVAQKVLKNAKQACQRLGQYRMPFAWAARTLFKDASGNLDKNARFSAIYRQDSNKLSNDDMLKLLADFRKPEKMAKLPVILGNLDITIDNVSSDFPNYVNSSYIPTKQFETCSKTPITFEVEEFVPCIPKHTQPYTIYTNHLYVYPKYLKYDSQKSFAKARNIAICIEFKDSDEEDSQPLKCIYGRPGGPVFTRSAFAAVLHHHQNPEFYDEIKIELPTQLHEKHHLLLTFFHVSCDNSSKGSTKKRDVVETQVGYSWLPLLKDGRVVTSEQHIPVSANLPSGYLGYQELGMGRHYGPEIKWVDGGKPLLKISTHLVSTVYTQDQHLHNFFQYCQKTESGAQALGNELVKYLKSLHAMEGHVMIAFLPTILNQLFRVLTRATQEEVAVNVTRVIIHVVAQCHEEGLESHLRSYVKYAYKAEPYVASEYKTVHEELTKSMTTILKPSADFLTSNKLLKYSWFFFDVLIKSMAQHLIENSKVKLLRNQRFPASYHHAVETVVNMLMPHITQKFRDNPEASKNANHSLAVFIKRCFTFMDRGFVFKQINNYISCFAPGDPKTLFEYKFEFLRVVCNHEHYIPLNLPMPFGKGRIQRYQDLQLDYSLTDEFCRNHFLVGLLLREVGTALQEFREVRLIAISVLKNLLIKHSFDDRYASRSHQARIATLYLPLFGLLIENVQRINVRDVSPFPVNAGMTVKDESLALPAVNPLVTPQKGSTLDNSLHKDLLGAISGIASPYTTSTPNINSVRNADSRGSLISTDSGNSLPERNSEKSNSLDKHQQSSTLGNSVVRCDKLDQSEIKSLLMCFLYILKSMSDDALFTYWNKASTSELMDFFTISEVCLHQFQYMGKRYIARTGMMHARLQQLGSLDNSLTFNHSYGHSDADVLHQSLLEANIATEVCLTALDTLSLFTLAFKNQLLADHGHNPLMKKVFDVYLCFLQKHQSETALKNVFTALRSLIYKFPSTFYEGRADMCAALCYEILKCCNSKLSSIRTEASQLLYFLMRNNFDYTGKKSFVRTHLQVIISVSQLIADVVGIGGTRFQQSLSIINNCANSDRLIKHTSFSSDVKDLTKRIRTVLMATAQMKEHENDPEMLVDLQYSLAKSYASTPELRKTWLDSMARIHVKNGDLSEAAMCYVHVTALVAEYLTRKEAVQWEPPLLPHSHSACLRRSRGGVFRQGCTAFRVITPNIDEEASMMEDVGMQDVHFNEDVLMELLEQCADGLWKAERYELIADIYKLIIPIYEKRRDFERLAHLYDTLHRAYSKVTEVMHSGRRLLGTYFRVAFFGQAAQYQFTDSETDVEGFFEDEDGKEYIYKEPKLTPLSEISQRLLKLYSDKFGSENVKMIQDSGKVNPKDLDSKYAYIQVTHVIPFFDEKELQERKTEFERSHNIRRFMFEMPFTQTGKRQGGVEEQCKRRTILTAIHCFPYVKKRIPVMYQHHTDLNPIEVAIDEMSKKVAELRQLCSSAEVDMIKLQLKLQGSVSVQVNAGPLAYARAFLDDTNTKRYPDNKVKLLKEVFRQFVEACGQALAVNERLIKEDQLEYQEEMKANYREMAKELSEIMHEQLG
UniProt P42892: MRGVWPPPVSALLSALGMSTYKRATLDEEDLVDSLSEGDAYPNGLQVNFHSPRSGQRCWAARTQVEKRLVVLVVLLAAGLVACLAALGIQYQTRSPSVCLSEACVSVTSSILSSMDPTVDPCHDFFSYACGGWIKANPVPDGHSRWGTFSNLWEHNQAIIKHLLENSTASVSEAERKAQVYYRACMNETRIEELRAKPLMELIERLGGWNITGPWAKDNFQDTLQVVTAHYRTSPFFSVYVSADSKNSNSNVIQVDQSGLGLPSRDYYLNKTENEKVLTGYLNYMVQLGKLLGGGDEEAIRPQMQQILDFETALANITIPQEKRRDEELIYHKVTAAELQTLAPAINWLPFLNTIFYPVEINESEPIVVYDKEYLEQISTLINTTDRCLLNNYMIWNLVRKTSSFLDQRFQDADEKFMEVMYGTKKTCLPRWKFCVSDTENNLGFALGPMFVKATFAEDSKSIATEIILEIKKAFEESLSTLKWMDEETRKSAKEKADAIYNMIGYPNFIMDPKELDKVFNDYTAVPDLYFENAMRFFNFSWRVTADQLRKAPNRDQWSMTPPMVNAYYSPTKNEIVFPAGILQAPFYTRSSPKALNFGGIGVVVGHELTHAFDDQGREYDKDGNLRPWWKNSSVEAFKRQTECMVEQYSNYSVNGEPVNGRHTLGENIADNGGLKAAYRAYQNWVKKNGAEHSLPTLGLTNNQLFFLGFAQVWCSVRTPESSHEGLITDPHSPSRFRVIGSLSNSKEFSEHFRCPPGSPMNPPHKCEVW
UniProt Q9UBS4: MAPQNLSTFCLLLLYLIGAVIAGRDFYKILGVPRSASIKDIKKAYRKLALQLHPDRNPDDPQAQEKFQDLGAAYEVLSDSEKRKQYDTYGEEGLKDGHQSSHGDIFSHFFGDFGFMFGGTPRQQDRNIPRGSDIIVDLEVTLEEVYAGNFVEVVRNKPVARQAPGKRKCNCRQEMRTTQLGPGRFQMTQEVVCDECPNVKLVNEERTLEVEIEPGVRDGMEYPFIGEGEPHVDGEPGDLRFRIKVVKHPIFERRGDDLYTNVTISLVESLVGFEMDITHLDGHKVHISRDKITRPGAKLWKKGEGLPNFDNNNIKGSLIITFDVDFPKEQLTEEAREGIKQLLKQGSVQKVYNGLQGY
UniProt O00115: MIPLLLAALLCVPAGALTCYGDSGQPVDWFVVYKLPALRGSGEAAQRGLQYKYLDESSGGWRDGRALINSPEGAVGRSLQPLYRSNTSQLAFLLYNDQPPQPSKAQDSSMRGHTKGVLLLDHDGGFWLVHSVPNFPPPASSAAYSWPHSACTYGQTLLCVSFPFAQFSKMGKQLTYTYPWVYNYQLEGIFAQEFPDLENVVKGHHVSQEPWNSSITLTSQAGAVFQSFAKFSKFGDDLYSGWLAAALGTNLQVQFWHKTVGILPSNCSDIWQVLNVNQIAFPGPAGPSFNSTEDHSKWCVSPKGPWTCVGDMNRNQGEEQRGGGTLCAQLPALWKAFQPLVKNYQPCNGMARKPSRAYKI
UniProt Q15125: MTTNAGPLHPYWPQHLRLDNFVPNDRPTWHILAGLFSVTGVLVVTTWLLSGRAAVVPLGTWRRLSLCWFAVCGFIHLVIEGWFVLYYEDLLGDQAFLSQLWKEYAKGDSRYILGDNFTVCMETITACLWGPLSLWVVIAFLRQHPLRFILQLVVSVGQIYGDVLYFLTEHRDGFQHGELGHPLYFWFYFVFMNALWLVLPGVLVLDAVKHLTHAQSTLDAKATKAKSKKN
UniProt Q14126: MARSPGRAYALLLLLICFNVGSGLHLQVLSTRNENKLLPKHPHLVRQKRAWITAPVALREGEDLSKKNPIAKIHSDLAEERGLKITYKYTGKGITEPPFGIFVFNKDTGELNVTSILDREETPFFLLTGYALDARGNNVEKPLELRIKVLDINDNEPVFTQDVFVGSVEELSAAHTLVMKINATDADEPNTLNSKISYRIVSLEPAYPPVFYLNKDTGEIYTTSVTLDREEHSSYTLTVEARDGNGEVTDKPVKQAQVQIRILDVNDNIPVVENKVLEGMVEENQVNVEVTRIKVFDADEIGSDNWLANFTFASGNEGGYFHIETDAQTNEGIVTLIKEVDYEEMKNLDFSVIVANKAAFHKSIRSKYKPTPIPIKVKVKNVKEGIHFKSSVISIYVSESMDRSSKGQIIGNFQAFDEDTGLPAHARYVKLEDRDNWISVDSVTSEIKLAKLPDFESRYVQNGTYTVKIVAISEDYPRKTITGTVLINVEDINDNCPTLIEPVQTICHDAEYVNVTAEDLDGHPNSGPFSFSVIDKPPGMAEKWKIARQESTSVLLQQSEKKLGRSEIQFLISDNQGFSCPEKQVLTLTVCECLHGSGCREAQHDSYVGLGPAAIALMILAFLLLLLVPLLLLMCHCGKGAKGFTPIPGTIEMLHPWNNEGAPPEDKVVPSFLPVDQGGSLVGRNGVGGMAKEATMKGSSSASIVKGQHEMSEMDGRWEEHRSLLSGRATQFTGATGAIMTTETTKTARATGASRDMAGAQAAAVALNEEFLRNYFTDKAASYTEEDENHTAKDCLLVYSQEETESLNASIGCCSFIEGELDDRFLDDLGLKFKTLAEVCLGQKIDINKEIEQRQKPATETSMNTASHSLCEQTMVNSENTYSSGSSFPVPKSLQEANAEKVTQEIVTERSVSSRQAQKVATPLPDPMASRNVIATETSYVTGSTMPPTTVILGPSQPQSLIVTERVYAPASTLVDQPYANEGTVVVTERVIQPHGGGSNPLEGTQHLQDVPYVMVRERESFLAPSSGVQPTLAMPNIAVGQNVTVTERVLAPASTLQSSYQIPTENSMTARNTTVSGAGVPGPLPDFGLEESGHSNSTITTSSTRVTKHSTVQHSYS
UniProt O00559: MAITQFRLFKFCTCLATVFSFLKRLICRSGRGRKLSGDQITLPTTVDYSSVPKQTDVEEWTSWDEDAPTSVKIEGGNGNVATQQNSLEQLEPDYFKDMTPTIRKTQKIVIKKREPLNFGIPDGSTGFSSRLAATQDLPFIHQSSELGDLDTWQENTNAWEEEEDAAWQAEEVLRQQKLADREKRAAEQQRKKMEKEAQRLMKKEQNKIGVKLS

What was measured:
Experiment in all cases: log2 fold change, soluble protein after heating vs DMSO (PISA); higher = thermal stabilisation; K562 cells, 10 uM, 30 min; active = over 0.2 and 3.5 SD of the protein, either way, in both replicates (recomputed)
IRAK-1-4 Inhibitor I = compound: C1COCCN1CCN2C3=CC=CC=C3N=C2NC(=O)C4=CC(=CC=C4)[N+](=O)[O-] [IRAK-1-4 Inhibitor I]
In short: (§1)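 Thermal stability values are relative to control samples and come from duplicates. They are expressed as log2 fold changes. For measurement, K562 cells (2×10^6 cells/mL) received 10 μM compound for 30 min, and aliquots were heated for 3 min over 48°C-58°C, pooled, and extracted at 4°C in PBS with 0.5% NP-40. Soluble protein, the supernatant after 21,000xg for 90 min, was quantified by TMTpro 16plex LC-MS/MS with equalised channel sums.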

ibrutinib = compound: C=CC(=O)N1CCC[C@@H](n2nc(-c3ccc(Oc4ccccc4)cc3)c3c(N)ncnc32)C1 [ibrutinib]
In short: as §1

[1] = compound: CC(=O)c1cnc2ccc(-c3cc(Cl)c(O)c(Cl)c3)nc2c1N[C@H]1CC[C@H](CN(C)C)CC1
In short: as §1

ralimetinib = compound: CC(C)(C)Cn1c(N)nc2ccc(-c3[nH]c(C(C)(C)C)nc3-c3ccc(F)cc3)nc21 [ralimetinib]
In short: as §1

[2] = compound: CC(C)(O)CC(=O)NCCn1ccc2ncnc(Nc3ccc(Oc4cccc(C(F)(F)F)c4)c(Cl)c3)c21
In short: as §1

[3] = compound: CC(C)C1=C2N=C(C=C(N2N=C1)NCC3=CC=CC=C3)NCCCCCCN
In short: as §1

[4] = compound: CC(C)C[C@@H](C=O)NC(=O)[C@H](CC(C)C)NC(=O)[C@H](CC(C)C)NC(=O)OCc1ccccc1
In short: as §1

pinometostat = compound: CC(C)N(C[C@H]1O[C@@H](n2cnc3c(N)ncnc32)[C@H](O)[C@@H]1O)[C@H]1C[C@@H](CCc2nc3cc(C(C)(C)C)ccc3[nH]2)C1 [pinometostat]
In short: as §1

[5] = compound: CC1=C(C(CC(=O)N1)C2=CC=C(C=C2)C(F)(F)F)C(=O)NC3=C(C=C4C(=C3)C=NN4)F
In short: as §1

[6] = compound: CC1=C(C2=C(C=C1)C(=O)C3=CC=CC=C3N2CCCN)C
In short: as §1

[7] = compound: CC1=C(C=C(C=C1)NC(=O)C2=CC(=CC=C2)C(C)(C)C#N)NC3=CC4=C(C=C3)N=CN(C4=O)C
In short: as §1

[8] = compound: CC1=C(C=C(C=C1)NC(=O)C2=CC(=CC=C2)N(C)C)NC(=O)C3=CC=C(C=C3)O
In short: as §1

[9] = compound: CC1=CC=C(C=C1)SC2=C3C=C(SC3=CN=C2)C(=O)N
In short: as §1

[10] = compound: CC1=NC(=CC=C1)C2=C(N=C(N2)C(C)(C)C)C3=CC4=NC=CN=C4C=C3
In short: as §1

Nexturastat A = compound: CCCCN(Cc1ccc(C(=O)NO)cc1)C(=O)Nc1ccccc1 [Nexturastat A]
In short: as §1

vemurafenib = compound: CCCS(=O)(=O)Nc1ccc(F)c(C(=O)c2c[nH]c3ncc(-c4ccc(Cl)cc4)cc23)c1F [vemurafenib]
In short: as §1

[11] = compound: CCCS(=O)(=O)Nc1ccc(F)c(C(=O)c2c[nH]c3ncc(Cl)cc23)c1F
In short: as §1

[12] = compound: CCCc1cc(C)[nH]c(=O)c1CNC(=O)c1cc(-c2ccnc(N3CCN(C)CC3)c2)cc2c1cnn2C(C)C
In short: as §1

givinostat = compound: CCN(CC)Cc1ccc2cc(COC(=O)Nc3ccc(C(=O)NO)cc3)ccc2c1 [givinostat]
In short: as §1

barasertib = compound: CCN(CCCOc1ccc2c(Nc3cc(CC(=O)Nc4cccc(F)c4)[nH]n3)ncnc2c1)CCOP(=O)(O)O [barasertib]
In short: as §1

Measured: log2 fold change

DUS4L (UniProt O95620)
inactive: IRAK-1-4 Inhibitor I 0.042 | ibrutinib 0 | [1] -0.028 | ralimetinib -0.112 | [2] 0.057 | [3] 0.115 | [4] -0.021 | pinometostat 0.004 | [5] 0.014 | [6] 0.018 | [7] -0.045 | [8] 0.036 | [9] -0.048 | [10] -0.009 | Nexturastat A 0.187 | vemurafenib -0.034 | [11] -0.038 | [12] -0.097 | givinostat 0.03 | barasertib -0.019

DNAJB4 (UniProt Q9UDY4)
inactive: IRAK-1-4 Inhibitor I 0.003 | ibrutinib 0.028 | [1] -0.102 | ralimetinib 0.043 | [2] -0.009 | [3] -0.029 | [4] 0.033 | pinometostat 0.011 | [5] -0.024 | [6] 0.027 | [7] -0.004 | [8] -0.034 | [9] 0.018 | [10] 0.005 | Nexturastat A 0.018 | vemurafenib 0.058 | [11] 0.064 | [12] 0.09 | givinostat 0.071 | barasertib 0.03

DNAJA3 (UniProt Q96EY1)
inactive: IRAK-1-4 Inhibitor I -0.02 | ibrutinib 0.093 | [1] 0 | ralimetinib -0.063 | [2] -0.017 | [3] -0.014 | [4] 0.082 | pinometostat 0.089 | [5] -0.014 | [6] 0.064 | [7] 0.001 | [8] 0.054 | [9] 0.009 | [10] -0.018 | Nexturastat A 0.205 | vemurafenib -0.012 | [11] 0.075 | [12] 0.026 | givinostat -0.055 | barasertib -0.07

EDEM1 (UniProt Q92611)
inactive: IRAK-1-4 Inhibitor I -0.03 | ibrutinib 0.124 | [1] 0.085 | ralimetinib -0.012 | [2] -0.051 | [3] -0.117 | [4] 0.068 | pinometostat 0.043 | [5] -0.065 | [6] 0.023 | [7] -0.012 | [8] 0.02 | [9] -0.01 | [10] -0.275 | Nexturastat A 0.037 | vemurafenib 0.04 | [11] 0.08 | [12] 0.08 | givinostat 0.073 | barasertib -0.063

DYNLRB1 (UniProt Q9NP97)
inactive: IRAK-1-4 Inhibitor I 0.003 | ibrutinib -0.001 | [1] 0.023 | ralimetinib -0.065 | [2] -0.153 | [3] 0.057 | [4] -0.008 | pinometostat -0.046 | [5] 0.013 | [6] 0.081 | [7] -0.027 | [8] -0.03 | [9] -0.027 | [10] -0.006 | Nexturastat A -0.044 | vemurafenib -0.063 | [11] -0.036 | [12] -0.004 | givinostat -0.053 | barasertib 0.045

DNAJB6 (UniProt O75190)
inactive: IRAK-1-4 Inhibitor I 0.042 | ibrutinib 0.006 | [1] -0.045 | ralimetinib -0.036 | [2] 0.022 | [3] -0.009 | [4] 0.041 | pinometostat 0 | [5] -0.012 | [6] 0.069 | [7] -0.089 | [8] 0.017 | [9] 0.006 | [10] -0.042 | Nexturastat A 0.09 | vemurafenib -0.029 | [11] 0.025 | [12] 0.053 | givinostat 0.019 | barasertib 0.024

DUT (UniProt P33316)
inactive: IRAK-1-4 Inhibitor I 0.029 | ibrutinib 0.004 | [1] -0.029 | ralimetinib -0.102 | [2] -0.095 | [3] 0.021 | [4] 0.001 | pinometostat -0.012 | [5] 0.083 | [6] 0.014 | [7] -0.031 | [8] -0.019 | [9] 0.038 | [10] 0.055 | Nexturastat A -0.103 | vemurafenib -0.029 | [11] -0.003 | [12] -0.02 | givinostat -0.001 | barasertib -0.005

DNPEP (UniProt Q9ULA0)
inactive: IRAK-1-4 Inhibitor I 0.009 | ibrutinib 0.017 | [1] 0.042 | ralimetinib -0.001 | [2] -0.027 | [3] 0.083 | [4] -0.027 | pinometostat -0.032 | [5] 0.016 | [6] 0.021 | [7] -0.029 | [8] 0.013 | [9] -0.016 | [10] 0.055 | Nexturastat A -0.06 | vemurafenib -0.01 | [11] 0.004 | [12] 0.003 | givinostat 0.007 | barasertib -0.016

DRAP1 isoform 2 (UniProt Q14919)
inactive: IRAK-1-4 Inhibitor I 0.019 | ibrutinib 0.001 | [1] 0.012 | ralimetinib -0.01 | [2] 0.02 | [3] 0.049 | [4] 0.002 | pinometostat -0.036 | [5] -0.022 | [6] -0.03 | [7] -0.005 | [8] 0 | [9] 0.005 | [10] -0.004 | Nexturastat A -0.07 | vemurafenib -0.005 | [11] 0 | [12] -0.009 | givinostat -0.026 | barasertib 0

DOCK9 isoform 4 (UniProt Q9BZ29)
inactive: IRAK-1-4 Inhibitor I 0.052 | ibrutinib -0.019 | [1] 0.043 | ralimetinib 0.058 | [2] -0.068 | [3] -0.006 | [4] 0.147 | pinometostat 0.006 | [5] -0.021 | [6] -0.122 | [7] 0.026 | [8] -0.051 | [9] 0.017 | [10] 0.003 | Nexturastat A -0.058 | vemurafenib -0.063 | [11] 0.037 | [12] -0.009 | givinostat -0.135 | barasertib 0.002

ECE1 (UniProt P42892)
inactive: IRAK-1-4 Inhibitor I 0.057 | ibrutinib -0.033 | [1] -0.014 | ralimetinib -0.042 | [2] -0.001 | [3] -0.005 | [4] 0.058 | pinometostat -0.072 | [5] 0.102 | [6] -0.123 | [7] 0.087 | [8] 0 | [9] 0.022 | [10] -0.003 | Nexturastat A 0.085 | vemurafenib -0.094 | [11] 0.08 | [12] -0.053 | givinostat -0.023 | barasertib 0.018

DNAJB11 (UniProt Q9UBS4)
inactive: IRAK-1-4 Inhibitor I 0.008 | ibrutinib -0.001 | [1] -0.017 | ralimetinib -0.027 | [2] 0.046 | [3] -0.022 | [4] -0.024 | pinometostat -0.01 | [5] -0.015 | [6] -0.013 | [7] -0.052 | [8] -0.001 | [9] -0.019 | [10] -0.012 | Nexturastat A -0.013 | vemurafenib 0.008 | [11] -0.006 | [12] -0.029 | givinostat -0.001 | barasertib 0.007

DNASE2 (UniProt O00115)
inactive: IRAK-1-4 Inhibitor I 0.022 | ibrutinib 0.045 | [1] 0.015 | ralimetinib -0.083 | [2] -0.02 | [3] -0.012 | [4] -0.047 | pinometostat -0.013 | [5] 0.018 | [6] -0.067 | [7] -0.016 | [8] 0.004 | [9] -0.003 | [10] 0.033 | Nexturastat A -0.041 | vemurafenib 0.05 | [11] -0.062 | [12] -0.035 | givinostat -0.077 | barasertib -0.034

EBP (UniProt Q15125)
inactive: IRAK-1-4 Inhibitor I -0.072 | ibrutinib 0.007 | [1] -0.284 | ralimetinib -0.027 | [2] -0.007 | [3] 0.004 | [4] -0.063 | pinometostat 0.033 | [5] -0.056 | [6] 0.028 | [7] 0.111 | [8] -0.056 | [9] 0.049 | [10] 0.007 | Nexturastat A -0.067 | vemurafenib -0.026 | [11] -0.003 | [12] -0.09 | givinostat 0.01 | barasertib 0.015

Taken from the entries so far (four entries):
DNPEP (UniProt Q9ULA0)
inactive: IRAK-1-4 Inhibitor I 0.009 | ibrutinib 0.017 | [1] 0.042 | ralimetinib -0.001 | [2] -0.027 | [3] 0.083 | [4] -0.027 | pinometostat -0.032 | [5] 0.016 | [6] 0.021 | [7] -0.029 | [8] 0.013 | [9] -0.016 | [10] 0.055 | Nexturastat A -0.06 | vemurafenib -0.01 | [11] 0.004 | [12] 0.003 | givinostat 0.007 | barasertib -0.016

DRAP1 isoform 2 (UniProt Q14919)
inactive: IRAK-1-4 Inhibitor I 0.019 | ibrutinib 0.001 | [1] 0.012 | ralimetinib -0.01 | [2] 0.02 | [3] 0.049 | [4] 0.002 | pinometostat -0.036 | [5] -0.022 | [6] -0.03 | [7] -0.005 | [8] 0 | [9] 0.005 | [10] -0.004 | Nexturastat A -0.07 | vemurafenib -0.005 | [11] 0 | [12] -0.009 | givinostat -0.026 | barasertib 0

DOCK9 isoform 4 (UniProt Q9BZ29)
inactive: IRAK-1-4 Inhibitor I 0.052 | ibrutinib -0.019 | [1] 0.043 | ralimetinib 0.058 | [2] -0.068 | [3] -0.006 | [4] 0.147 | pinometostat 0.006 | [5] -0.021 | [6] -0.122 | [7] 0.026 | [8] -0.051 | [9] 0.017 | [10] 0.003 | Nexturastat A -0.058 | vemurafenib -0.063 | [11] 0.037 | [12] -0.009 | givinostat -0.135 | barasertib 0.002

ECE1 (UniProt P42892)
inactive: IRAK-1-4 Inhibitor I 0.057 | ibrutinib -0.033 | [1] -0.014 | ralimetinib -0.042 | [2] -0.001 | [3] -0.005 | [4] 0.058 | pinometostat -0.072 | [5] 0.102 | [6] -0.123 | [7] 0.087 | [8] 0 | [9] 0.022 | [10] -0.003 | Nexturastat A 0.085 | vemurafenib -0.094 | [11] 0.08 | [12] -0.053 | givinostat -0.023 | barasertib 0.018

Further results

DSG2 (UniProt Q14126)
inactive: IRAK-1-4 Inhibitor I 0.037 | ibrutinib 0.044 | [1] -0.045 | ralimetinib 0.029 | [2] -0.004 | [3] 0.032 | [4] 0.01 | pinometostat 0.003 | [5] 0.026 | [6] -0.07 | [7] -0.01 | [8] 0 | [9] -0.012 | [10] 0 | Nexturastat A -0.027 | vemurafenib -0.016 | [11] -0.049 | [12] 0.012 | givinostat -0.018 | barasertib 0.005

EBAG9 isoform 2 (UniProt O00559)
inactive: IRAK-1-4 Inhibitor I 0.009 | ibrutinib 0.045 | [1] 0.046 | ralimetinib 0.043 | [2] 0.063 | [3] 0.058 | [4] 0.08 | pinometostat -0.028 | [5] -0.006 | [6] 0.017 | [7] 0.03 | [8] -0.013 | [9] 0.019 | [10] 0.036 | Nexturastat A 0.045 | vemurafenib -0.022 | [11] 0.038 | [12] -0.02 | givinostat -0.026 | barasertib -0.028
